{"source": "PubChem BioAssay AID1159584 (Peter MacCallum Cancer Centre, 2016)", "aim": "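Genes whose loss is lethal only together with E-cadherin loss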 (primary screen)", "cell system": "human MCF10A breast epithelial cells, parental and CDH1-null", "reagent": "siRNA against human genes", "measured": "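ATP luminescence (CellTiter-Glo) viability per line relative to mean mock wells over all plates, and the ratio of CDH1-null to parental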", "reading the numbers": "CDH1-null / parental viability ratio: higher = CDH1-null cells survive relatively better than parental", "note": "The deposit covers about 18,000 reagents; this is a part drawn at random. Further read-outs or replicates are left out here. Reagent sequences are not shown. The record does not give: the amount of reagent, the time to read-out."}
{"gene knocked down": "CLCNKB", "CDH1-null / parental viability ratio": 1.61}
{"gene knocked down": "BCL11B", "CDH1-null / parental viability ratio": 1.08}
{"gene knocked down": "CRYBG2", "CDH1-null / parental viability ratio": 0.97}
{"gene knocked down": "ASB15", "CDH1-null / parental viability ratio": 0.95}
{"gene knocked down": "TMUB2", "CDH1-null / parental viability ratio": 1.34}
{"gene knocked down": "CLDN12", "CDH1-null / parental viability ratio": 1.19}
{"gene knocked down": "TTC23", "CDH1-null / parental viability ratio": 0.73}
{"gene knocked down": "TGIF2LY", "CDH1-null / parental viability ratio": 0.97}
{"gene knocked down": "UNC5CL", "CDH1-null / parental viability ratio": 0.94}
{"gene knocked down": "GTF2H3", "CDH1-null / parental viability ratio": 1.06}
{"gene knocked down": "PDE4DIP", "CDH1-null / parental viability ratio": 0.75}
{"gene knocked down": "PIGC", "CDH1-null / parental viability ratio": 1.11}
{"gene knocked down": "LILRA4", "CDH1-null / parental viability ratio": 1}
{"gene knocked down": "CFHR2", "CDH1-null / parental viability ratio": 0.91}
{"gene knocked down": "CARD19", "CDH1-null / parental viability ratio": 0.75}
{"gene knocked down": "ELANE", "CDH1-null / parental viability ratio": 1.17}
{"gene knocked down": "SANBR", "CDH1-null / parental viability ratio": 0.99}
{"gene knocked down": "TIMM44", "CDH1-null / parental viability ratio": 1.03}
{"gene knocked down": "CYLC2", "CDH1-null / parental viability ratio": 1.1}
{"gene knocked down": "ADIPOR2", "CDH1-null / parental viability ratio": 1.09}
{"gene knocked down": "ZBTB2", "CDH1-null / parental viability ratio": 1.38}
{"gene knocked down": "HDAC2", "CDH1-null / parental viability ratio": 1.13}
{"gene knocked down": "AHSA2P", "CDH1-null / parental viability ratio": 0.88}
{"gene knocked down": "KIF26A", "CDH1-null / parental viability ratio": 1.06}

Laid out differently: 2 of the entries above.
gene knocked down,CDH1-null / parental viability ratio
ELANE,1.17
SANBR,0.99
